# According to PubChem BioAssay AID1259415 (National Center for Advancing Translational Sciences (NCATS), 2018):
# Out of some 410,000 compounds screened, about 18,000 (4.4%) were called active. Inconclusive results, whose numbers are uncertain, are shown with a selection of clear calls. Cut-off read from the data, not from the text of the source: active = activity change below about -60%; inconclusive = no clear call, values can overlap the other calls; inactive = above about -39%.
# Test: qHTS Assay for inhibitors of the human cytomegalovirus (HCMV)
# Details: HFF cells, HCMV-luciferase reporter, 72 h; at 57.5 µM; hits give low values
# Outline: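 Screen run at 2 compound doses on HFFs infected with reporter HCMV, MOI 1 PFU/cell. Luciferase activity from cell lysates at 72 h post infection gave inhibition relative to buffer-only and Salinomycin wells.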
# % is set by controls: 0 for no effect and ±100 for the full control effect.
row,SMILES,"activity change, negative = inhibition"
1,COC(=O)c1ccc(NC(=O)c2nc(-c3ccc(Cl)cc3)n3c2CCCCC3)cc1,inconclusive: -49.4%
2,COCC1CCCN(Cc2cn(-c3ccccc3F)nc2-c2cc(C)sc2C)C1 (stereo not given),inconclusive: -41.1%
3,COc1ccccc1NC1CCCCC1NS(=O)(=O)c1ccccc1 (stereo not given),inconclusive: -50.7%
4,O=C(NCCO)c1cc2ccccc2cc1O,inactive: 8.2%
5,Cc1ccc(NC(=O)CNC(=O)c2cccc(Cl)c2)nc1,inconclusive: -47.4%
6,CCCN1CCC(=O)N([C@H](CO)CC(C)C)CC1,active: -60.9%
7,CCc1ccc(/C=C2\SC(=S)N(CCC(=O)NCCCN3CCOCC3)C2=O)cc1,active: -74%
8,COc1ccc(OC)c(NC(=O)COC(=O)CCC2CCCC2)c1,inconclusive: 0%
9,COC(=O)C1=C(C)N(C)C(=S)NC1c1ccccc1 (stereo not given),inconclusive: -41.1%
10,Cc1c(Cl)cccc1-n1ncc(C(=O)Nc2ccc(Br)cc2F)c1C1CCNCC1,inconclusive: -42.4%
11,CNC(=S)n1cnc(N)n1,active: -64.7%
12,O=C(Nc1ccccc1Cl)c1ccc(Cl)cc1Cl,inconclusive: -47.9%
13,O=C(Cc1cccs1)NNC(=O)C12CC3CC(CC(C3)C1)C2,inactive: 15%
14,O=C(Nc1ccccc1F)c1ccc2c(Cl)c3c(nc2c1)CCC3,active: -86.5%
15,Nn1cnnc1N/N=C/c1cc(Br)cc(Br)c1O,inconclusive: -47%
16,CCOc1ccc(C(=O)NCC(=O)N2CCN(Cc3ccccc3)CC2)cc1,inconclusive: -40.7%
17,COc1ccc(CNc2ncnc3sccc23)cc1,active: -73.5%
18,COc1ccc(C(=O)C(=O)N2CCN(c3ccccc3F)CC2)cc1,active: -68.1%
19,COc1ccc(-c2c(C#Cc3ccsc3)c3cc(-c4ccc5c(c4)OCO5)ccc3n2C)cc1,active: -71.2%
20,COC(=O)/C(C#N)=C/c1c(N2CCN(c3cccc(Cl)c3)CC2)nc2c(C)cccn2c1=O,inconclusive: -48%
21,N#Cc1c(-c2ccc(Cl)cc2)c(-c2ccc(Cl)cc2)nn(CCOC(=O)CCC(=O)O)c1=O,inconclusive: -56.3%
22,O=C1NC(=O)C(C2CCCCCC2)C(=O)N1,active: -65.7%
23,Cc1ccccc1CCN(C(=O)c1csnn1)C(C(=O)NC1CCCC1)c1ccco1 (stereo not given),inconclusive: -44.5%

# Copied from the list:
# activity change, negative = inhibition, COC(=O)C1=C(C)N(C)C(=S)NC1c1ccccc1 (stereo not given) is entered as inconclusive: -41.1%
# activity change, negative = inhibition, N#Cc1c(-c2ccc(Cl)cc2)c(-c2ccc(Cl)cc2)nn(CCOC(=O)CCC(=O)O)c1=O is entered as inconclusive: -56.3%

# The listing continues:

row,SMILES,"activity change, negative = inhibition"
1,Cc1ccc(N2CCN(S(=O)(=O)c3cccc4ccccc34)CC2)cc1Cl,inconclusive: -52.2%
2,O=C(Cn1nc(C(F)(F)F)c2c1CCCC2)Nc1ccc(Br)cc1,inactive: -20.1%
3,C=CCc1cccc(/C=N/NC(=O)C(=O)Nc2ccc(C)cc2)c1O,inactive: -9.62%
4,Cc1ccc(C)c(NC(=S)NCc2ccc3[nH]c4c(c3c2)CCCC4)c1,inconclusive: -52.6%
5,O=C(NCC(O)COc1ccc([N+](=O)[O-])cc1)Nc1ccccc1 (stereo not given),inactive: 15%
6,CC1(C)CC(NC(=O)c2ccccn2)CC(C)(C)N1O,inconclusive: -55.8%
7,C/C(=N\NC(=O)c1cc(-c2cccc([N+](=O)[O-])c2)n[nH]1)c1ccccc1O,inactive: 39.1%
8,CC1CCN(C(=O)CNC(=O)CNC(=O)Cc2ccccc2)CC1,inactive: -4.89%
9,COc1cc(O)c(C(CC(=O)N2CCCC(C)C2)c2cc(OC)c(OC)c(OC)c2)c(OC)c1 (stereo not given),inactive: 13.3%
10,CN(C)CCNC(=O)C1CCN(Cc2cc3ccccc3n2Cc2ccccc2)CC1,active: -101%
11,NNC(=O)c1oc2nc(-c3ccc(Cl)cc3)cc(-c3ccccc3)c2c1N,inconclusive: -50.8%
12,O=C(c1ccc(N2CCCC2=O)cc1)N1CCN(c2ccc(Cl)cc2)CC1,inconclusive: -49.1%
13,C=COCCCNc1ncnc2sc(-c3ccccc3)cc12,inconclusive: -42%
14,COc1ccc2oc(-c3ccc(NC(=O)c4ccc(N5CCOCC5)c([N+](=O)[O-])c4)cc3)nc2c1,inactive: -26.8%
15,COc1cc(NC(=O)CCc2c(C)nn(-c3ccc4nnc(C)n4n3)c2C)cc(OC)c1OC,inconclusive: -46%
16,COc1ccc(S(=O)(=O)N2CCC(C(=O)N3CCCCC3)CC2)cc1Cl,inconclusive: -48.2%
17,COc1ccc(N2CCN(CCCNC(=O)c3ccc(CS(=O)(=O)c4ccc(OC)cc4)o3)CC2)cc1,inconclusive: -40.9%
18,CCCCC(CC(O)COCCC)C(=O)NN (stereo not given),inactive: -19.9%
19,CCCOC(=O)c1c(NC(=O)C(C)Sc2nc(-c3ccccc3)cc(C(F)(F)F)n2)sc(C(=O)N(C)C)c1C (stereo not given),inconclusive: -43.9%
20,COc1ccc(C2C(C#N)=C(SC)NC3=C2C(=O)CC(C)(C)C3)cc1 (stereo not given),inconclusive: -59.1%
21,Cc1ccccc1-c1ccc(/C=C2/SC(N3CCOCC3)=NC2=O)o1,inactive: -17.3%
22,O=C1NC[C@H](Cc2ccccc2)N(C[C@@H]2CCCN2C[C@H](Cc2ccccc2)N2C[C@H](Cc3ccccc3)N(CCc3ccccc3)C(=O)C2=O)C1=O,inconclusive: -41.1%
